{"source": "paper PMC9508527", "about": "“Two-component carnitine monooxygenase from Escherichia coli: functional characterization, inhibition and mutagenesis of the molecular interface” (Bioscience Reports, 2022)", "key": {"[1]": {"biological_target": "T1, YeaW, Rieske-type oxygenase component of carnitine monooxygenase from E. coli (E. coli) (UniProt P0ABR7)", "T1 sequence": "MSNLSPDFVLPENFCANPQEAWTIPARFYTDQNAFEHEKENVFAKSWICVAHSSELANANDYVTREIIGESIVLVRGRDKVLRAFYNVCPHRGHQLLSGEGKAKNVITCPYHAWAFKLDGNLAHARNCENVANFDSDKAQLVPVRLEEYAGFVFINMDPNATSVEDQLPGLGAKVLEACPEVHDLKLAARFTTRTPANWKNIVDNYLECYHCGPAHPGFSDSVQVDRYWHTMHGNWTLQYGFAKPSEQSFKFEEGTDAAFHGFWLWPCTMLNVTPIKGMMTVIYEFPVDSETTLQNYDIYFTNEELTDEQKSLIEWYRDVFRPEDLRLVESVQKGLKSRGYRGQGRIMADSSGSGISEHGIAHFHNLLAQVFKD", "assay": "pull-down; protein-protein interaction experiments with immobilized YeaX (or YeaW); high concentrations of L-carnitine and NADH, in the absence of molecular oxygen; both purified"}, "[2]": {"biological_target": "T2, YeaX, reductase component of carnitine monooxygenase from E. coli (E. coli) (UniProt P76254)", "T2 sequence": "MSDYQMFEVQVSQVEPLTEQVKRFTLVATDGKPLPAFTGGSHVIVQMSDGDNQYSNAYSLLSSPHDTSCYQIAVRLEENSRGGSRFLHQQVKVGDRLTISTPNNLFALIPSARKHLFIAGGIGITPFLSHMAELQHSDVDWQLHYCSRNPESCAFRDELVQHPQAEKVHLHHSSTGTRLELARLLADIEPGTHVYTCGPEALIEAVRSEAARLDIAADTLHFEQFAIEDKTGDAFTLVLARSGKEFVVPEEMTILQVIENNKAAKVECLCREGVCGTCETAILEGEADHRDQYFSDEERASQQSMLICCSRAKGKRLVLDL", "assay": "SEC; analytical gel filtration, Superdex 200 increase 5/150 GL, 10 mM Hepes-NaOH pH 7.5, 150 mM NaCl, 0.45 ml min^-1, 20 µl samples (~300 µM), calibrated with protein standards; both purified"}, "[3]": {"biological_target": "T2, YeaX, reductase component of carnitine monooxygenase from E. coli (E. coli)", "assay": "pull-down; protein-protein interaction experiments with immobilized YeaX (or YeaW); high concentrations of L-carnitine and NADH, in the absence of molecular oxygen; both purified"}}, "note": "No constants are given. Whether binding was seen depends on the method and setting.", "data": [{"binder": "YeaX, reductase component of carnitine monooxygenase from E. coli (enzyme, UniProt P76254 1-321, looked up) MSDYQMFEVQVSQVEPLTEQVKRFTLVATDGKPLPAFTGGSHVIVQMSDGDNQYSNAYSLLSSPHDTSCYQIAVRLEENSRGGSRFLHQQVKVGDRLTISTPNNLFALIPSARKHLFIAGGIGITPFLSHMAELQHSDVDWQLHYCSRNPESCAFRDELVQHPQAEKVHLHHSSTGTRLELARLLADIEPGTHVYTCGPEALIEAVRSEAARLDIAADTLHFEQFAIEDKTGDAFTLVLARSGKEFVVPEEMTILQVIENNKAAKVECLCREGVCGTCETAILEGEADHRDQYFSDEERASQQSMLICCSRAKGKRLVLDL", "values": [{"measurement": "binding", "setting": "[1]", "result": "no binding"}, {"measurement": "binding", "setting": "[2]", "result": "no binding (tested: ~300 µM (20 µl injected))"}]}, {"binder": "YeaW, Rieske-type oxygenase component of carnitine monooxygenase from E. coli (enzyme, UniProt P0ABR7 1-374, looked up, primers run from the start to the stop codon; No cleavage of the tag is described; calculated molecular mass 45,463 Da; Carries a Rieske-type [2Fe-2S] cluster and a mononuclear [Fe] center; also called oxygenase YeaW; catalytic unit YeaW) MSNLSPDFVLPENFCANPQEAWTIPARFYTDQNAFEHEKENVFAKSWICVAHSSELANANDYVTREIIGESIVLVRGRDKVLRAFYNVCPHRGHQLLSGEGKAKNVITCPYHAWAFKLDGNLAHARNCENVANFDSDKAQLVPVRLEEYAGFVFINMDPNATSVEDQLPGLGAKVLEACPEVHDLKLAARFTTRTPANWKNIVDNYLECYHCGPAHPGFSDSVQVDRYWHTMHGNWTLQYGFAKPSEQSFKFEEGTDAAFHGFWLWPCTMLNVTPIKGMMTVIYEFPVDSETTLQNYDIYFTNEELTDEQKSLIEWYRDVFRPEDLRLVESVQKGLKSRGYRGQGRIMADSSGSGISEHGIAHFHNLLAQVFKD", "values": [{"measurement": "binding", "setting": "[3]", "result": "no binding"}]}]}
